# The other results are listed elsewhere or left out.
# Amino acid sequences for entries named in this document (tags omitted). A change or cut given only in a name is not applied to a line headed by its entry.
# UniProt Q6PL18: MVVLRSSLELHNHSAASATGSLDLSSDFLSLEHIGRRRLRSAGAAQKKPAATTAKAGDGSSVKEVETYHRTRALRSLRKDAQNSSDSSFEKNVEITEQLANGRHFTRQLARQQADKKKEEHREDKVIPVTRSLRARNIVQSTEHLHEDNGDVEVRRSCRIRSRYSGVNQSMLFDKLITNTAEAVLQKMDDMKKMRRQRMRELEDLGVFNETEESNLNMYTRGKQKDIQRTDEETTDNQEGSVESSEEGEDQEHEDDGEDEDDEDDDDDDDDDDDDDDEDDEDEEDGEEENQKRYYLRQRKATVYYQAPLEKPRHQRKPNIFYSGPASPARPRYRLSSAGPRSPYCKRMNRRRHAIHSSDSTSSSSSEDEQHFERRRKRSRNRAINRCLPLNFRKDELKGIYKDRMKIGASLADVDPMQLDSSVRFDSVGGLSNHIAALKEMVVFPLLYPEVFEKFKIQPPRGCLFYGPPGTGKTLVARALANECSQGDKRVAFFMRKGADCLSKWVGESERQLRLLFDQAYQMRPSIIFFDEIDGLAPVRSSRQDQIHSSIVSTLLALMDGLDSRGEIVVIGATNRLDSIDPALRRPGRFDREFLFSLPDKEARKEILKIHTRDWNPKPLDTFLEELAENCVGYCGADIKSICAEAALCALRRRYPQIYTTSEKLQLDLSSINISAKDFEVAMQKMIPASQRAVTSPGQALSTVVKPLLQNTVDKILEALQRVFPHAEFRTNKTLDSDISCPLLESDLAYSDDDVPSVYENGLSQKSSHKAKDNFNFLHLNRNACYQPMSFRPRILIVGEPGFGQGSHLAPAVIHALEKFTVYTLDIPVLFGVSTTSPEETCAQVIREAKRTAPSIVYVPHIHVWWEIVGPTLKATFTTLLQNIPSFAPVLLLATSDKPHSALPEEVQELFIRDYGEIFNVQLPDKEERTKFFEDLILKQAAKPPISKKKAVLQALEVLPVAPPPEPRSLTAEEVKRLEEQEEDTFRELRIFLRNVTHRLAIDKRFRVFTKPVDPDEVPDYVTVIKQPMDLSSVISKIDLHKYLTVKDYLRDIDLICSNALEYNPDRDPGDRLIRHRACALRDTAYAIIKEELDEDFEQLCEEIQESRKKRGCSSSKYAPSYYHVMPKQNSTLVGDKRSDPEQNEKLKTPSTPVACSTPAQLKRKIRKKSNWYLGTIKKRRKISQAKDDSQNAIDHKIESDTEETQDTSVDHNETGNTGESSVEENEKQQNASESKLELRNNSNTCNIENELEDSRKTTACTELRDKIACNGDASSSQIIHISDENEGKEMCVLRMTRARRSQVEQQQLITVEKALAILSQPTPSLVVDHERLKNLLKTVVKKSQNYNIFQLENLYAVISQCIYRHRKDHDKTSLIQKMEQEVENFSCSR
# UniProt Q9HD20: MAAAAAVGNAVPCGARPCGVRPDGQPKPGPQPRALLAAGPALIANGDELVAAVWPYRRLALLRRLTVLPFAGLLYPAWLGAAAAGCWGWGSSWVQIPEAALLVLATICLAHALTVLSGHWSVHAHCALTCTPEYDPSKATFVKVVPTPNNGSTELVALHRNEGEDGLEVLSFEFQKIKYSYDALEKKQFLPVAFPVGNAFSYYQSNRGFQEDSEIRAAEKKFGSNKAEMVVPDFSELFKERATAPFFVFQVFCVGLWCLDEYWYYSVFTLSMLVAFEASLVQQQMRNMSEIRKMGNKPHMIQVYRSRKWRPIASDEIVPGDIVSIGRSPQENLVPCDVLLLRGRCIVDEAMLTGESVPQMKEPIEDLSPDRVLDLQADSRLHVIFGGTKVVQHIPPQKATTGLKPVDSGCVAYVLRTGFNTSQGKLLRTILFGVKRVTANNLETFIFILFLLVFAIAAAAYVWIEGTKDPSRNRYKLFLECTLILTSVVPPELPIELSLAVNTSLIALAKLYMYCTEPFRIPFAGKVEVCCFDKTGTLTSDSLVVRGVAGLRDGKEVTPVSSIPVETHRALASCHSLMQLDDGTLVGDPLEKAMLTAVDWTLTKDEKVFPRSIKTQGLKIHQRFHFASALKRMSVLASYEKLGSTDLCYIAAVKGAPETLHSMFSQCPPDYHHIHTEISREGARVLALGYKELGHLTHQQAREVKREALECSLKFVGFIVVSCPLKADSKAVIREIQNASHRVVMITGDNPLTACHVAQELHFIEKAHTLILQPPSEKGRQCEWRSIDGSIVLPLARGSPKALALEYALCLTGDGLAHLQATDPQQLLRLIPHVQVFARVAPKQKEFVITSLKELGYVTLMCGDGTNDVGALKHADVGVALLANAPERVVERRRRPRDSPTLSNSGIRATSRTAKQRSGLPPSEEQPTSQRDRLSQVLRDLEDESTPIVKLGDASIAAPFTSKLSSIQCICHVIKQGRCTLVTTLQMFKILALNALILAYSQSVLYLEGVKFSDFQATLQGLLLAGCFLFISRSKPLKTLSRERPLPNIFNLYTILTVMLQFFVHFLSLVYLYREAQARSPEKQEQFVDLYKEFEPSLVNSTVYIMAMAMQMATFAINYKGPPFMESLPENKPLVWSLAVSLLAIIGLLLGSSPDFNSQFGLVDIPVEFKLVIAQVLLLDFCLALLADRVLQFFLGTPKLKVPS
# UniProt Q96DT6: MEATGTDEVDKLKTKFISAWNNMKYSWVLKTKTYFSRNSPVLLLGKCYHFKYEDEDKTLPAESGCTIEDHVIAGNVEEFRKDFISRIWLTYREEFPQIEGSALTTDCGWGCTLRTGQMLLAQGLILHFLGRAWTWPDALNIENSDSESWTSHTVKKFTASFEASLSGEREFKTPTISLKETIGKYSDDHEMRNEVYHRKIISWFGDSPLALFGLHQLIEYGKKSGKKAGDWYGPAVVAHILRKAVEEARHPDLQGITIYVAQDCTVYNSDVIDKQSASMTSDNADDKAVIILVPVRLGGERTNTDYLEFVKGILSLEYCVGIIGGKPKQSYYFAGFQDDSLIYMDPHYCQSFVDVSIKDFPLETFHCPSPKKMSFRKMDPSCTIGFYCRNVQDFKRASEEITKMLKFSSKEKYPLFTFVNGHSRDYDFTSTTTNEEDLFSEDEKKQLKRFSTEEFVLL
# UniProt Q9BZE9, whole entry, looked up: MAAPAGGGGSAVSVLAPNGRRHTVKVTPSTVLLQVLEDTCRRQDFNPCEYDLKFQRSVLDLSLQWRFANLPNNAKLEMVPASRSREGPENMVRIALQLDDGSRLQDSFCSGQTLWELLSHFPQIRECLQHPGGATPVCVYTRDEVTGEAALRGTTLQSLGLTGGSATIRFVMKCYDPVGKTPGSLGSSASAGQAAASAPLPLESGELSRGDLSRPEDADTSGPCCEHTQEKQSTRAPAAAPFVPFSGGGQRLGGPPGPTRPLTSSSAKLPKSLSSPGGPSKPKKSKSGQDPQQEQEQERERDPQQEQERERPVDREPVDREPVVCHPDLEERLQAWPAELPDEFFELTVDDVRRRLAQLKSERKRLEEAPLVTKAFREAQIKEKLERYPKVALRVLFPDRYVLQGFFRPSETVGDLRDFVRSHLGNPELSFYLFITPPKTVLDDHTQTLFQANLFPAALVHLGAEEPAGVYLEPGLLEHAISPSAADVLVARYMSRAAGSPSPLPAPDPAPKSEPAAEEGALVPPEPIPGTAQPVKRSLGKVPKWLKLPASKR
# UniProt O43681: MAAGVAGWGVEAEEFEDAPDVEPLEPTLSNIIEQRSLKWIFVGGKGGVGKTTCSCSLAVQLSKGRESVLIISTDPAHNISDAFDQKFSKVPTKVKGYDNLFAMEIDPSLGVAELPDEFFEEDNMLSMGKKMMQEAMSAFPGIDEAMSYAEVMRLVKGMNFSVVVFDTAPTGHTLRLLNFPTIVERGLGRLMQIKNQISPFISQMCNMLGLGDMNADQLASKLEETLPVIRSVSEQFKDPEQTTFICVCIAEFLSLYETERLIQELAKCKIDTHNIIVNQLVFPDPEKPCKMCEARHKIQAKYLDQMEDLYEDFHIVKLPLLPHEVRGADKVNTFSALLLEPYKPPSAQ
# UniProt P15336: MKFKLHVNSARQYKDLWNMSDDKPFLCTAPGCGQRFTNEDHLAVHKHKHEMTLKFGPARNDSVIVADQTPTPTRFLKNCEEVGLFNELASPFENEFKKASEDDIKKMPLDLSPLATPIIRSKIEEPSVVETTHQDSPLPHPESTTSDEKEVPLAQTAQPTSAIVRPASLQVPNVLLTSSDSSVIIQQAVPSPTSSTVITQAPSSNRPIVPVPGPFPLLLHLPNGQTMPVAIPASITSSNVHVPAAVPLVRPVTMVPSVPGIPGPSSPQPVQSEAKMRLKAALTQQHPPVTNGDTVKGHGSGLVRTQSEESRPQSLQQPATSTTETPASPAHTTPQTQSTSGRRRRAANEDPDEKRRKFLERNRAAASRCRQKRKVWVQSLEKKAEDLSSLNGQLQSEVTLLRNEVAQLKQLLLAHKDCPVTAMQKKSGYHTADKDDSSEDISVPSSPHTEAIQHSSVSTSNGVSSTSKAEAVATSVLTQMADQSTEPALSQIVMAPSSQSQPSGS
# UniProt Q5TC12: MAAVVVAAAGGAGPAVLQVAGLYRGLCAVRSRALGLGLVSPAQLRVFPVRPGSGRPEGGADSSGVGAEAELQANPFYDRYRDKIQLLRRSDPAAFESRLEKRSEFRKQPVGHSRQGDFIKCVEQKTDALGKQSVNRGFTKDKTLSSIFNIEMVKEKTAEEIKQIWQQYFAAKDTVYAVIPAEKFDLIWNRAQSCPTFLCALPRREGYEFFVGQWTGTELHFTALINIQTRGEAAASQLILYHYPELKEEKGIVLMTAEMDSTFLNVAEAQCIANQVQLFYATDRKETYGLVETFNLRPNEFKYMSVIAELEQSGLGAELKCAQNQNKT
# UniProt P49407: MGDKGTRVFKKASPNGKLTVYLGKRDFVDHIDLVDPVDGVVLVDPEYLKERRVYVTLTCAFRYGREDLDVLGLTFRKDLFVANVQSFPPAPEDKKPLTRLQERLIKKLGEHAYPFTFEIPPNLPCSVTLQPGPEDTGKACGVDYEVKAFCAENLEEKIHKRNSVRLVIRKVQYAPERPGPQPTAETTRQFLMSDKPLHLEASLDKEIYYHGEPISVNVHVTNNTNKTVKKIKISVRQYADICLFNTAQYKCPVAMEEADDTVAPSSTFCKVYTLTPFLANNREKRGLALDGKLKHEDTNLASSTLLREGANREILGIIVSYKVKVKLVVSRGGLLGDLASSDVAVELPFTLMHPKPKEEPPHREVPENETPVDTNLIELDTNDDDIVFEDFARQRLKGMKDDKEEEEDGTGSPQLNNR
# UniProt P15848: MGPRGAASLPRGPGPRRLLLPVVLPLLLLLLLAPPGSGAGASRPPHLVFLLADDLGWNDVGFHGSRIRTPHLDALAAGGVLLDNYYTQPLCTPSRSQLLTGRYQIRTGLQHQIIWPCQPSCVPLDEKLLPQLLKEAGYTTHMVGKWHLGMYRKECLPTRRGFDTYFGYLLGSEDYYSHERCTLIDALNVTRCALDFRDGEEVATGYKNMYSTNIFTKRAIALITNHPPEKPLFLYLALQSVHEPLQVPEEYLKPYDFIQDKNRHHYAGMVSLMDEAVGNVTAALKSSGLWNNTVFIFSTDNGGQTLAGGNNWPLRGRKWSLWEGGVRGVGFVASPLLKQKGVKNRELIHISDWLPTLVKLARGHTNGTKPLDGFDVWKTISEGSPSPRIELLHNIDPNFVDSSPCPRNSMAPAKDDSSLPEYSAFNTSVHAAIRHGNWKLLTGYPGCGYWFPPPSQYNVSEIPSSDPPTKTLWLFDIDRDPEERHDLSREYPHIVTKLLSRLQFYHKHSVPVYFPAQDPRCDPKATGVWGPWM
# Compound: CC1Cc2ccccc2N1C(=O)C1CCCN(C1)C(=O)CCl (mixture of isomers) [TRIM25 ligand 11 (diastereomer mixture)]
# Experiment: probe-labelled cysteine peptide fold change vs DMSO (competition) (log2 fold change); higher = less target engagement (more negative = stronger competition)
# Conditions: THP-1, incubation time: 4 h
# 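Also: competitive chemoproteomic profiling in live THP-1 cells with an iodoacetamide desthiobiotin (IA-DTB) probe, comparing probe-labelled peptide intensities in compound-treated cells against DMSO-treated controls.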
Target,probe-labelled cysteine peptide fold change (10 µM),probe-labelled cysteine peptide fold change (50 µM)
ATAD2_Q6PL18_1156_TPSTPVACSTPAQLKR (UniProt Q6PL18),-0.161,-0.271
ATP13A1_Q9HD20_862_ELGYVTLMCGDGTNDVGALK (UniProt Q9HD20),0.0278,-0.2
ATG4C_Q96DT6_367_DFPLETFHCPSPK (UniProt Q96DT6),0.0101,0.0834
ASPSCR1_Q9BZE9_138_ECLQHPGGATPVCVYTR (UniProt Q9BZE9),0.158,-0.134
ASNA1_O43681_289_IDTHNIIVNQLVFPDPEKPCK (UniProt O43681),-0.0273,0.107
ATF2_P15336_79_NCEEVGLFNELASPFENEFK (UniProt P15336),-0.151,-0.39
ATPAF1_Q5TC12_321_CAQNQNK (UniProt Q5TC12),0.0122,-0.11
ATP6V1B2_P21281_162_VFNGSGKPIDRGPVVLAEDFLDIMGQPINPQCR (UniProt P21281),-0.191,-0.212
ARRB1_P49407_251+269_CPVAMEEADDTVAPSSTFCK (UniProt P49407),-0.138,-0.118
ATG7_O95352_524_QQGAGDLCPNHPVASADLLGSSLFANIPGYK (UniProt O95352),0.00963,-0.039
ATP2C1_P98194_411_IVEAGCVCNDAVIR (UniProt P98194),-0.000286,0.297
ATM_Q13315_790_CLSNCTK (UniProt Q13315),0.0195,0.0568
ARSB_P15848_117+121_TGLQHQIIWPCQPSCVPLDEK (UniProt P15848),0.0375,0.126

# Look-ups from the list.
# probe-labelled cysteine peptide fold change (10 µM) with ATAD2_Q6PL18_1156_TPSTPVACSTPAQLKR (UniProt Q6PL18) is entered as -0.161
# probe-labelled cysteine peptide fold change (50 µM) with ATP13A1_Q9HD20_862_ELGYVTLMCGDGTNDVGALK (UniProt Q9HD20) is entered as -0.2

# Source: the supplement of paper PMC12067093, “Discovery and optimisation of a covalent ligand for TRIM25 and its application to targeted protein ubiquitination” (Chemical Science, 2025)
